Experimental data reported in PubChem BioAssay AID2685 (National Center for Advancing Translational Sciences (NCATS), 2010).
The list shows a part of the results. Shown are side measurements of this screen, not its main read-out; they come without a call. The list favours compounds with an active or inconclusive main result. Potencies come from curve fits of mixed quality, noted in brackets.

Test: qHTS Assay for Lipid Storage Modulators in Drosophila S3 Cells;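 as to cell number change: cells counted by Cell Tracker Red CMTPX staining in the red channel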
Details: BODIPY lipid droplet fluorescence, 18-24 h; for cell number change: measured here: cell count max response, cells fed with added oleic acid
In short: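 Laser-scanning cytometry quantifies lipid droplet accumulation (500–530 nm total intensity; droplet/cell object ratio) in oleic acid-fed (400 uM added) Drosophila S3 cells treated with a concentration series. 20 uM Triacsin C defined 100% inhibition.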

[1] = measured here: lipid fluorescence (Fed channel) AC50, cells fed with added oleic acid
[2] = measured here: cell number channel AC50, cells fed with added oleic acid

SMILES | cell number change [%] | AC50 [1] | AC50 [2]
CC1CCCC(NC(=O)c2cccc(N3CCCC3=O)c2)C1C (stereo not drawn) | 18.7 |  | 
C=CCn1c(SCC(=O)N(CC)C2CCS(=O)(=O)C2)nc2cc(C(=O)O)ccc2c1=O (stereo not drawn) | 22.8 |  | 
COCCNC(=O)C(=O)Nc1cccc(Br)c1 | 30 | 20.6 µM [falling, partial curve] | 
COCc1cc(C)nc(SCC(=O)Nc2ccccc2N2CCOCC2)c1C#N |  | 16.4 µM [falling, partial curve] | 
CCOC(=O)c1cnn(-c2ccc([N+](=O)[O-])cc2)c1N | -38 |  | 18.4 µM [falling, single point]
COc1cccc(-c2nnn(CC(=O)O)n2)c1 |  | 5.8 µM [falling, single point] | 
Cc1ccc(Cn2cc(/C=N/Nc3ccc([N+](=O)[O-])cn3)c3ccccc32)cc1 | -11.5 | 11.6 µM [falling, partial curve] | 
Cc1nn(C)c(N)c1C(O)(c1nccn1C)C(F)(F)F (stereo not drawn) | -13 | 0.0291 µM [falling, full curve, poor fit] | 
O=S(=O)(Nc1ccc(-c2ccc3nncn3n2)cc1)c1ccc(Cl)s1 |  |  | 6.51 µM [rising, single point]
COc1ccc(C(=O)Nc2nc3ccccc3s2)cc1 | -0.518 |  | 
CCOC(=O)CSc1nc2sc3c(c2c(=O)[nH]1)CC(C)(CC)OC3 (stereo not drawn) | 13.8 | 4.61 µM [falling, partial curve] | 
CCOC(=O)CC1C(=O)NCCN1C(=O)c1cc2c(=O)n3cccc(C)c3nc2s1 (stereo not drawn) | 16.2 |  | 
CSc1ccccc1NC(=O)CCn1c(=O)oc2ccccc21 | -22.9 | 6.51 µM [falling, single point] | 
COc1ccc(NC(=O)CSc2sc3c(O)cc(=O)[nH]c3c2C#N)c(OC)c1 | 23.5 |  | 
CN1C(=O)N(C)C2CC1N(C)C(=O)N2C | -5.21 | 4.61 µM [falling, single point] | 
COc1ccc(-c2cc(C(F)F)nc(-n3nc(C)cc3C)n2)cc1 | -22.1 | 16.4 µM [falling, single point] | 
CCn1cc(C(=O)NC2CC3CCC2C3)c(=O)c2ccc(C)nc21 (stereo not drawn) | 21 | 4.61 µM [rising, partial curve] | 
COc1ccc(-c2ccnc(SCC(=O)N3CCN(c4ccccc4)CC3)n2)cc1 | 30.7 | 8.2 µM [rising, partial curve, poor fit] | 16.4 µM [rising, single point]
CS(=O)(=O)c1ccc2nc(NC(=O)c3ccc(NS(=O)(=O)c4ccc(F)c(F)c4)cc3)sc2c1 | -3.18 | 13 µM [falling, partial curve] | 
Cn1nnnc1SCCOc1ccc(C#N)cc1 | -5.05 |  | 
Cc1cccc(OCc2nnc(SCC(=O)NCCc3ccccc3)o2)c1 | 2.91 | 0.291 µM [rising, partial curve, poor fit] | 

SMILES | cell number change [%] | AC50 [1] | AC50 [2]
COc1cc(/C=C/C(=O)Nc2cc(C(F)(F)F)ccc2Cl)cc(OC)c1OC | -55.3 | 11.6 µM [falling, single point] | 2.06 µM [falling, full curve]
Cc1noc(C)c1CSCC(=O)NC1=NCCS1 | 4.12 | 29.1 µM [rising, single point] | 
COc1ccc(C(=O)O)cc1S(N)(=O)=O | -27.1 | 9.2 µM [falling, partial curve, poor fit] | 
COc1ccc(S(=O)(=O)N2CCCCC2)cc1NC(=O)CN1CCN(C(C)=O)CC1 | 3.85 |  | 
Cc1cc(NC(=O)c2cccc([N+](=O)[O-])c2)n(-c2ccccc2)n1 | 15 | 29.1 µM [rising, single point] | 
O=C1C(=O)N(CCCn2ccnc2)C(c2ccc([N+](=O)[O-])cc2)/C1=C(\O)c1ccc2c(c1)OCCO2 (stereo not drawn) | 6.37 | 2.31 µM [rising, single point] | 
OCC[C@@H]1C[C@H](O)[C@@H](O)[C@@]2(Cc3ccccc3O2)O1 | 21.3 |  | 
Cc1ccc(/C=C/C(=O)Nc2nnc(SCc3ccc(C#N)cc3)s2)o1 | -43.7 | 29.1 µM [falling, single point] | 29.1 µM [falling, single point]
CCCCCOC(=O)C1=C(C)NC(=O)NC1c1ccc(OC)cc1 (stereo not drawn) | -26.8 | 29.1 µM [falling, single point] | 
CCCn1nc(NC(=O)c2ccco2)c2cc3ccc(C)cc3nc21 | -31.6 | 0.58 µM [rising, full curve] | 
O=C(Nc1cccc2cccnc12)c1cccc(N2C(=O)CCC2=O)c1 | -2.86 | 0.517 µM [rising, full curve, poor fit] | 
O=C(CSc1nnc(NC(=O)c2ccco2)s1)Nc1ccccc1Cl |  | 6.51 µM [falling, partial curve] | 
CC(=O)c1c(C)[nH]c(C(=O)OCC(=O)c2c(N)n(C)c(=O)n(C)c2=O)c1C |  | 0.103 µM [rising, full curve, poor fit] | 
COc1ccc(Br)cc1/C=N/NC(=O)c1nc(-c2ccccc2)n2c1CCCCC2 |  | 29.1 µM [rising, partial curve] | 
CC(C(=O)NCCN1CCOCC1)(c1ccccc1)c1ccccc1 | -42.5 | 20.6 µM [falling, single point] | 25.9 µM [falling, single point]
CCOc1ccc(-c2nnc(SCC(=O)NC(C)(C)C)nc2-c2ccc(OCC)c(OC)c2)cc1OC | 10.6 |  | 
O=C(NCc1cccs1)C1CCCN(C(=O)Nc2ccccc2)C1 (stereo not drawn) | 2.94 |  | 
CCOC(=O)NC(=O)c1cn(Nc2ccccc2)c(=O)[nH]c1=O | -10.4 |  | 0.651 µM [falling, full curve]
NC(=O)c1ccc(NC(=O)COC(=O)CC(NC(=O)c2ccccc2Cl)c2ccccc2)cc1 (stereo not drawn) | 8.91 | 3.66 µM [rising, full curve] | 
COCCCn1c(=N)c(C(=O)NCc2ccc3c(c2)OCO3)cc2c(=O)n3ccccc3nc21 | -10.2 | 0.58 µM [rising, full curve] | 
C=CCNC(=O)C1CCN(S(=O)(=O)c2ccc3ccccc3c2)CC1 | -9.12 | 29.1 µM [rising, single point] | 

SMILES | cell number change [%] | AC50 [1] | AC50 [2]
O=C1CCNCCN1[C@H](CO)c1ccccc1 | 6.8 | 4.11 µM [rising, full curve, poor fit] | 
CCc1noc(C)c1C(=O)N(CC(C)C)c1c(N)n(Cc2ccccc2)c(=O)[nH]c1=O | -2.46 | 20.6 µM [rising, single point] | 
CSCCNC(=O)c1ccc(C(C)(C)C)cc1 | 0.453 | 0.58 µM [falling, partial curve] | 
Clc1ccc(N2CCN(/N=C/c3cccnc3)CC2)cc1 | 1.56 | 5.8 µM [rising, full curve, poor fit] | 
CC(C)(C)Cc1nnc(NC(=O)c2ccc3c(c2)OCO3)s1 |  |  | 4.11 µM [rising, partial curve, poor fit]
CCCCCOc1ccc(C(C)(O)C(CN2CCOCC2)c2ccccc2)cc1 (stereo not drawn) | -19.9 | 29.1 µM [falling, single point] | 
Cc1ccc(/C([O-])=C(/C(=S)NCc2ccco2)[n+]2ccccc2)cc1 | 34.7 |  | 16.4 µM [rising, single point]
Clc1cccc(Nc2nc(N3CCOCC3)nc(N3CCOCC3)n2)c1 | 0.612 | 3.66 µM [rising, full curve] | 
O=C(Nc1ccc(Cl)cn1)c1ccc2ccccc2n1 | -23.5 |  | 
CCOC(=O)c1c(-c2ccc(Cl)cc2)c(C#N)c(=O)n(N)c1N |  |  | 0.082 µM [rising, full curve, poor fit]
COc1cc(C(=O)NC(C)c2ccc3ccccc3c2)cc(Cl)c1O (stereo not drawn) | 13.5 | 29.1 µM [rising, partial curve, poor fit] | 
O=C(NC(=S)N1CCN(Cc2ccccc2)CC1)c1cccnc1 | 2 |  | 
COc1ccccc1/C=N/NC(=O)c1csc(C)c1C | 43 | 7.31 µM [rising, partial curve, poor fit] | 29.1 µM [rising, single point]
Cc1c(NC(=S)NC(=O)c2cc3ccccc3o2)cccc1C(=O)O | 10.6 | 0.00517 µM [rising, full curve, poor fit] | 
CCOC(=O)C1=C(CSc2nc3c(cc2C#N)CCC3)OC(N)=C(C#N)C1c1ccccc1 (stereo not drawn) | -13 | 0.366 µM [falling, partial curve, poor fit] | 0.731 µM [falling, single point]
COc1ccc(-c2ncncc2-c2csc(C)n2)c(O)c1OC | 33.9 |  | 10.3 µM [rising, partial curve]
CCOCC(=O)Nc1ccc(OCc2ccccc2)cc1 | 24.3 |  | 
COc1ccccc1CNC(=O)C1CC(c2c(Cl)cccc2Cl)=NO1 (stereo not drawn) | 31.6 | 4.11 µM [rising, full curve, poor fit] | 6.51 µM [rising, partial curve]
COc1ccc(N2CCN(C(=O)c3ccc4c(c3)[nH]c(=S)n3c5ccccc5nc43)CC2)cc1 | -18.7 | 0.0326 µM [rising, full curve, poor fit] | 6.51 µM [rising, single point]
COC(=O)c1cc(NC(=O)c2ccc(Cn3cc(Cl)cn3)o2)cc(C(=O)OC)c1 | -58.4 |  | 29.1 µM [falling, single point]
COc1ccccc1N1CCN(C(=O)c2cccc(S(=O)(=O)NCc3cccnc3)c2)CC1 | -10.6 | 29.1 µM [falling, single point] | 

Three of these compounds in another layout:
SMILES,cell number change [%],AC50 [1],AC50 [2]
Cc1cccc(OCc2nnc(SCC(=O)NCCc3ccccc3)o2)c1,2.91,"0.291 µM [rising, partial curve, poor fit]",
O=C(NC(=S)N1CCN(Cc2ccccc2)CC1)c1cccnc1,2,,
COc1ccc(N2CCN(C(=O)c3ccc4c(c3)[nH]c(=S)n3c5ccccc5nc43)CC2)cc1,-18.7,"0.0326 µM [rising, full curve, poor fit]","6.51 µM [rising, single point]"
